According to patent publication JP2014094898A:
These are yes or no findings as the source states them, for the method shown. In cells and extracts the contact can be indirect. Some results given as binding are weak or reduced against the parent protein; the word gives no strength.

Protein sequences, listed by entry. Tags and fused reporters are not part of them.
UniProt P29351: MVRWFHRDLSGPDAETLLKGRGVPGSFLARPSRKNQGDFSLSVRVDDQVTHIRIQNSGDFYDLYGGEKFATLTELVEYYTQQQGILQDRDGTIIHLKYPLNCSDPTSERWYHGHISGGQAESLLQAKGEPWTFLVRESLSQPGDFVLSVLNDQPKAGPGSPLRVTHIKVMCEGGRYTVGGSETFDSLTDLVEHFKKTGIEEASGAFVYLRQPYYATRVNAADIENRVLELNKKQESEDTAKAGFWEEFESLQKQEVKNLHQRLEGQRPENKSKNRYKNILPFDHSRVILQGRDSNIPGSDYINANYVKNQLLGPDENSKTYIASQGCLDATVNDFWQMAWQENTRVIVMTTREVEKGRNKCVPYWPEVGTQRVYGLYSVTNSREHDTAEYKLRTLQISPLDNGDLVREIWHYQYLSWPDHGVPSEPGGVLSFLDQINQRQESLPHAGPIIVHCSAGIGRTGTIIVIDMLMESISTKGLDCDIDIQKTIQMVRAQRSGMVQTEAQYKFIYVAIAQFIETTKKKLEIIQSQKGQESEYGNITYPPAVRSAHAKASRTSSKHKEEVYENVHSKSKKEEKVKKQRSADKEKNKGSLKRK

Target: SHP−1 (mouse) (UniProt P29351)
Experiment: co-immunoprecipitation from BMMC lysates with TX41, immunoblot with anti-SHP-1; no recruitment when D89E MFG-E8 was present

- binding: binds
B1: マウスCD300a(マウス細胞の内在性) (receptor, mouse, UniProt Q6SJQ0 28-318, looked up)
chain: LHGPSTMSGSVGESLSVSCRYEEKFKTKDKYWCRVSLKILCKDIVKTSSSEEARSGRVTIRDHPDNLTFTVTYESLTLEDADTYMCAVDISLFDGSLGFDKYFKIELSVVPSEDPVSSPGPTLETPVVSTSLPTKGPALGSNTEGHREHDYSQGLRLPALLSVLALLLFLLVGTSLLAWRMFQKRLVKADRHPELSQNLRQASEQNECQYVNLQLHTWSLREEPVLPSQVEVVEYSTLALPQEELHYSSVAFNSQRQDSHANGDSLHQPQDQKAEYSEIQKPRKGLSDLYL
